Data as given in PMC7518614.
These are yes or no findings as the source states them, for the method shown. Binding seen in cells or lysates may run through a third protein. These calls come from enrichment with a bait or labelling near it, and not all partners need be listed.

Chains of the proteins cited; added tags and fusions are not shown.
UniProt Q9CW03: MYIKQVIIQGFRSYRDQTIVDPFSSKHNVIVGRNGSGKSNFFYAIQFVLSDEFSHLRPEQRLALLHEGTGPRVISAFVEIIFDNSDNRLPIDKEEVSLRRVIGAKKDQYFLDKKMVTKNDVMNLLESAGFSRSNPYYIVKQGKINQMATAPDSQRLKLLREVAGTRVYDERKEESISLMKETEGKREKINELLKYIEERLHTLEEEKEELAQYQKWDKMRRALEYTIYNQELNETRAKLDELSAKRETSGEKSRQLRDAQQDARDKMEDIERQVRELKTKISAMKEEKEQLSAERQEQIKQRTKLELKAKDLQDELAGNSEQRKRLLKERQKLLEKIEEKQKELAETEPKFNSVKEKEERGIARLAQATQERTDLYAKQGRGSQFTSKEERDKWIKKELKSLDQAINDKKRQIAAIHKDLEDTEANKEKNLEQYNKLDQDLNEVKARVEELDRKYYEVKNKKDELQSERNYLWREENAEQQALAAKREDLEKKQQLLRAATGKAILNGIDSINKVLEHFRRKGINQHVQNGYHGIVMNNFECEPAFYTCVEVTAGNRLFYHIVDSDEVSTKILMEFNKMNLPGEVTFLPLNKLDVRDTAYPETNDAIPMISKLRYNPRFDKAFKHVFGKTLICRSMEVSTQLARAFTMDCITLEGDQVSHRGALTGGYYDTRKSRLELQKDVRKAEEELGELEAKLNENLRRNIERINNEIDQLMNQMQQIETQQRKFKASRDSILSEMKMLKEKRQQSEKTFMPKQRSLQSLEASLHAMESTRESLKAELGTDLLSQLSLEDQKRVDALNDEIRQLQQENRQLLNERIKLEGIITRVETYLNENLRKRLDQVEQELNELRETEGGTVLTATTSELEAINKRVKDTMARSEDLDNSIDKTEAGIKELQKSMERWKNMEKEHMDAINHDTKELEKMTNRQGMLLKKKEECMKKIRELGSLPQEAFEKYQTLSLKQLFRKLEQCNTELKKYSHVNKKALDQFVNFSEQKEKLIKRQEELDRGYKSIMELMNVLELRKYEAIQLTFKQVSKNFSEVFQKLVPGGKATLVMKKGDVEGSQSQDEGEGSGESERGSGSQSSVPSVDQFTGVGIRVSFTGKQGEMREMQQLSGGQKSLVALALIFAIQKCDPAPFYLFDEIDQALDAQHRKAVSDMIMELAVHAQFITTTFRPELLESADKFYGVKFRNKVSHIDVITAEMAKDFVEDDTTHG

T1: HORMAD1 (mouse (endogenous in testis)) (UniProt Q9D5T7)
T1 sequence: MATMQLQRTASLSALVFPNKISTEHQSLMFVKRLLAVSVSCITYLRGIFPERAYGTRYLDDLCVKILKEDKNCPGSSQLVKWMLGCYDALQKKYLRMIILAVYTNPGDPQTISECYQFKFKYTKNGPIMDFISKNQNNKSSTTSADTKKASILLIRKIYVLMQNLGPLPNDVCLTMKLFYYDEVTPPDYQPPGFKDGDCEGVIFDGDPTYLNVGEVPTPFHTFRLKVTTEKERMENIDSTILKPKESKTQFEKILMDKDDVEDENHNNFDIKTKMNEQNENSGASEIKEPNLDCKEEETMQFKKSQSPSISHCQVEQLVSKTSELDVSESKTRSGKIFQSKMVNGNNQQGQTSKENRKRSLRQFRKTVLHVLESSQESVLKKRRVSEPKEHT


Molecular target: T1, HORMAD1 (mouse (endogenous in testis))
Experiment: affinity purification with mass spectrometry; IP with rabbit anti-HORMAD1 antibody cross-linked to protein A-Dynabeads from chromatin-bound extracts (400 mM KCl) of WT mouse testes enriched for preleptotene/leptotene spermatocytes (WIN 18,446 then RA); washed with high salt extraction buffer; LC-MS/MS; proteins of the control IgG IP subtracted

Row | Molecule | binding
1 | SMC3 (from UniProt Q9CW03 1-1217) | binds
2 | PDS5B (protein, UniProt Q4VA53 1-1446) MAHSKTRTNDGKITYPPGVKEISDKISKEEMVRRLKMVVKTFMDMDQDSEEEKELYLNLALHLASDFFLKHPDKDVRLLVACCLADIFRIYAPEAPYTSPDKLKDIFMFITRQLKGLEDTKSPQFNRYFYLLENIAWVKSYNICFELEDSNEIFTQLYRTLFSVINNGHNQKVHMHMVDLMSSIICEGDTVSQELLDTVLVNLVPAHKNLNKQAYDLAKALLKRTAQAIEPYITNFFNQVLMLGKTSISDLSEHVFDLILELYNIDSHLLLSVLPQLEFKLKSNDNEERLQVVKLLAKMFGAKDSELASQNKPLWQCYLGRFNDIHVPIRLECVKFASHCLMNHPDLAKDLTEYLKVRSHDPEEAIRHDVIVSIVTAAKKDILLVNDHLLNFVRERTLDKRWRVRKEAMMGLAQIYKKYSLQSAAGKDAAKQISWVKDKLLHIYYQNSIDDRLLVERIFAQYMVPHNLETTERMKCLYYLYATLDLNAVKALNEMWKCQNLLRHQVKDLLDLIKQPKTDASVKAIFSKVMVITRNLPDPGKAQDFMKKFTQVLEDDEKIRKQLEALVSPTCSCKQAEGCVREITKKLGNPKQPTNPFLEMIKFLLERIAPVHIDTESISALIKQVNKSIDGTADDEDEGVPTDQAIRAGLELLKVLSFTHPISFHSAETFESLLACLKMDDEKVAEAALQIFKNTGSKIEEDFPHIRSALLPVLHHKSKKGPPRQAKYAIHCIHAIFSSKETQFAQIFEPLHKSLDPSNLEHLITPLVTIGHIALLAPDQFAAPLKSLVATFIVKDLLMNDRLPGKKTTKLWVPDEEVSPETMVKIQAIKMMVRWLLGMKNNHSKSGTSTLRLLTTILHSDGDLTEQGKISKPDMSRLRLAAGSAIVKLAQEPCYHEIITLEQYQLCALAINDECYQVRQVFAQKLHKGLSRLRLPLEYMAICALCAKDPVKERRAHARQCLVKNITVRREYLKQHAAVSEKLLSLLPEYVVPYTIHLLAHDPDYVKVQDIEQLKDVKECLWFVLEILMAKNENNSHAFIRKMVENIKQTKDAQGPDDTKMNEKLYTVCDVAMNIIMSKSTTYSLESPKDPVLPARFFTQPDKNFSNTKNYLPPEMKSFFTPGKPKTANVLGAVNKPLSSAGKQSQTKSSRMETVSNASSSSNPSSPGRIKGRLDSSEMDHSENEDYTMSSPLPGKKSDKREDPDLSELEKPRSRKKAPVTDPEEKLGMDDLTKLVQEQKPKGSQRGRKRGRTASDSDEQQWPEEKRHKEELLENEDEQNSPPKKGKRGRPPKPLGGGTSKEEPTMKTSKKGNKKKLVPPVVDDDEEEERQIGNTEHKSKSKQHRTSKRAQQRAESPETSAVESTQSTPQKGRGRPSKAPSPSQPPKKIRVGRSKQVATKENDSSEEMDVLQASSPVSDDTTQEGAEEEDISVGNVRRRSSKRERR | binds
3 | SYCP3 (protein, UniProt P70281 1-254) MLRGCGDSDSSPEPLSKHLKMVPGGRKHSGKSGKPPLVDQPKKAFDFEKDDKDLSGSEEDVADEKAPVIDKHGKKRSAGIIEDVGGEVQNMLEKFGADINKALLAKRKRIEMYTKASFKASNQKIEQIWKTQQEEIQKLNNEYSQQFMNVLQQWELDIQKFEEQGEKLSNLFRQQQKIFQQSRIVQSQRMFAMKQIHEQFIKSLEDVEKNNDNLFTGTQSELKKEMAMLQKKVMMETQQQEMANVRKSLQSMLF | binds
